Test results taken from PMC7053324.
Construct, isoform or probe ends are uncertain for at least one entry. Results from cells or extracts need not show a direct contact. At least one verdict was read from the data and is not stated in words by the source.

Amino acid sequences for entries named in this document (tags omitted). Residues count along the entry.
UniProt P30530, 26-894: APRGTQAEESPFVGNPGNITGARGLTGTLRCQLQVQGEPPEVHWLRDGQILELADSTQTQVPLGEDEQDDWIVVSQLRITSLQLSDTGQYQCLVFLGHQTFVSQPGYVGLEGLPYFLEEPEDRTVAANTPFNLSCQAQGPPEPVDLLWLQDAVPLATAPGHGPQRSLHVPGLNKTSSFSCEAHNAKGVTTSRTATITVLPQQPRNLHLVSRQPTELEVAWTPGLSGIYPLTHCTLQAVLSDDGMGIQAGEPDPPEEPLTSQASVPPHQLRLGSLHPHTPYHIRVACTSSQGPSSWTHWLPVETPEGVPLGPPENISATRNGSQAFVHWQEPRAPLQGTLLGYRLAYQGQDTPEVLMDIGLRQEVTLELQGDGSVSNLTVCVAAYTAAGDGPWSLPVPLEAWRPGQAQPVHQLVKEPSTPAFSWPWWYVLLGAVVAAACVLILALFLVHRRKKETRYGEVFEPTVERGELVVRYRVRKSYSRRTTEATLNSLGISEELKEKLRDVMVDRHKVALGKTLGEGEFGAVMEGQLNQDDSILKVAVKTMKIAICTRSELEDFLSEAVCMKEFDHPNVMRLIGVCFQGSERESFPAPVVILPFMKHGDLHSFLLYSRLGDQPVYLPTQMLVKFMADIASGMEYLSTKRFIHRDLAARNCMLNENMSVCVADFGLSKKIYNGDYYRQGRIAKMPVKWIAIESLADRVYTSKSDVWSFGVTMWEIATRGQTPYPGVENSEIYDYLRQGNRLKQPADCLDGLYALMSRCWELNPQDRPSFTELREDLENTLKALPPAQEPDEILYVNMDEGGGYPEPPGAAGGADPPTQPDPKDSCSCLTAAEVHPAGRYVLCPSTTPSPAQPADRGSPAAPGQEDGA

Biological target: AXL receptor tyrosine kinase on A549 cells (UniProt P30530)
Experiment: cell binding, qRT-PCR of recovered RNA
Settings: 30 min, 2'-F pyrimidines, Live A549 cells, 200 nM RNA, 30 min at 37 C, 3 washes with ice-cold DPBS, TRIzol recovery, binding buffer/medium and pH not stated, protein on the cell surface

| Sequence | binding result (comparison aptamer) | binding result (normalized to CL4 reference and cell number, sticky 17-mers 2'-F-Py and 2'-OMe-Pu, XXXX = C3 carbon linkers between C34 and G35 of strand 1 (left out of the string)) |
| --- | --- | --- |
| AUGAUCAAUCGCCUCAAUUCGACAGGAGGCUCAC [GL21.T (AXL aptamer)] | binds |  |
| AUGAUCAAUCGCCUCAAUUCGACAGGAGGCUCACGUACAUUCUAGAUAGCC / AGGUGAAGUUCUGUUAUACACUCAGGCUGGCUAUCUAGAAUGUAC / AGUCAGUGCAUCACAGAACUUUGUCUUU |  | binds |
